Results are given in words; binding and its absence hold for the method and conditions named. In cells and extracts the contact can be indirect. Binding calls can cover weak binding; strength is not graded here.

By UniProt entry, the sequences of proteins in these tests, tags left out.
UniProt Q9P1Y6: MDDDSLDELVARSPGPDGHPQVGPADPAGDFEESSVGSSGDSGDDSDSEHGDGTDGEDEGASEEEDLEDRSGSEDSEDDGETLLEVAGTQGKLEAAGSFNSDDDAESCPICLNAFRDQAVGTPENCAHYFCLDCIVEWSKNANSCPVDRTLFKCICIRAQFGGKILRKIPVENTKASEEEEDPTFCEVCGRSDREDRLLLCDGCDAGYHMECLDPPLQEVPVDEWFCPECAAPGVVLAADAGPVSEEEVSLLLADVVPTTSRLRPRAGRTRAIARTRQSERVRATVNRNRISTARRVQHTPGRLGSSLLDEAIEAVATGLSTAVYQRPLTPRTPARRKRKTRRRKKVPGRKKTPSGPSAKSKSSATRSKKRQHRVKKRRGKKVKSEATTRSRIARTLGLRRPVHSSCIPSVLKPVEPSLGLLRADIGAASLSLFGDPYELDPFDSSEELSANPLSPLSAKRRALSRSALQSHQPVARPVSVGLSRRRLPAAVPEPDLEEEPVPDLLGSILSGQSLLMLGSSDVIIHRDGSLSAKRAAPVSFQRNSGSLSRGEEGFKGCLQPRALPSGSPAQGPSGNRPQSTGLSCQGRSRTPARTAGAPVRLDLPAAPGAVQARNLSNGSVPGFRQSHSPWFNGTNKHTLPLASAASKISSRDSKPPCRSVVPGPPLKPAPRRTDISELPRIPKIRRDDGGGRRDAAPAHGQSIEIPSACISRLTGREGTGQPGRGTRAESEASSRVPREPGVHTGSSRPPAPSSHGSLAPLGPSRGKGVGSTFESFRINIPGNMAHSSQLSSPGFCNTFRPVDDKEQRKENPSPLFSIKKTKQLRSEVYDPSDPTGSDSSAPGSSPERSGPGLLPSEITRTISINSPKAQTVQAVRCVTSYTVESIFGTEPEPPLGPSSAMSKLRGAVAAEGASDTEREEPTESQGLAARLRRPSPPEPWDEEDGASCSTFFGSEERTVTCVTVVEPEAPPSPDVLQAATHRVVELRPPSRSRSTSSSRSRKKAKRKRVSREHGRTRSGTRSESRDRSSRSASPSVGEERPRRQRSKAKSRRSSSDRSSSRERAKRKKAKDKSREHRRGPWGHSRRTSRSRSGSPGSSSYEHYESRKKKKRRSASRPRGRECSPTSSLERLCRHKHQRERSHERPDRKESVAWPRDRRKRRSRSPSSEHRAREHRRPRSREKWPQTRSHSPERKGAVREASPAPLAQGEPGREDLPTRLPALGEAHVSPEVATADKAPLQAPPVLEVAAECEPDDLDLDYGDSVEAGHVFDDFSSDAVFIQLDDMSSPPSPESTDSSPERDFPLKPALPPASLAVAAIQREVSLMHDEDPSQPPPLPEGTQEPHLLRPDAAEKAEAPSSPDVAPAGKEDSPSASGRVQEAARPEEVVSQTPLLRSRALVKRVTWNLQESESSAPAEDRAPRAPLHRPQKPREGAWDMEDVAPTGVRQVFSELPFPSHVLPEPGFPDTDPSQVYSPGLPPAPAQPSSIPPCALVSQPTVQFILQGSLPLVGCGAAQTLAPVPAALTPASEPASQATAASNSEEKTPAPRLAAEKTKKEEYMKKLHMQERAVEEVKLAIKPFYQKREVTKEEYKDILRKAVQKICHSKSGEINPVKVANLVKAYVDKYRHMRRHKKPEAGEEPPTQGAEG

Experiment [1] concerns the target p53 protein of T24 cells (mutated TP53) (human (endogenous in T24)) (UniProt P04637). Briefly: co-IP; p53 immunoprecipitated from T24 and 5637 cell lysates (IP lysis buffer with protease inhibitors, co-IP kit); immunoblot of input and IP samples; endogenous proteins.
The target in experiment [2] is p53 protein of 5637 cells (mutated TP53) (human (endogenous in 5637)) (UniProt P04637). Described as above.

For the substance “PHRF1 (PHD and ring finger domain 1) (from UniProt Q9P1Y6 1-1649)”, the binding entry in experiment [1] and in experiment [2] was “binds” throughout.

These data come from PMC12850319.
